Measured values: publication PMC12418388
These are yes or no findings as the source states them, for the method shown. For some of these results: In cells and extracts the contact can be indirect. Some binding calls cover weakened binding; strength is not graded here. For some of these results: Tags and fused reporters may be left off the sequences shown. Values belong to the substance of their own block, whether it stands above or below them.

Sequences of proteins named here, by UniProt entry; tags and fusion partners are left off. A change or cut given only in a name is not applied to a line headed by its entry.
UniProt Q62167: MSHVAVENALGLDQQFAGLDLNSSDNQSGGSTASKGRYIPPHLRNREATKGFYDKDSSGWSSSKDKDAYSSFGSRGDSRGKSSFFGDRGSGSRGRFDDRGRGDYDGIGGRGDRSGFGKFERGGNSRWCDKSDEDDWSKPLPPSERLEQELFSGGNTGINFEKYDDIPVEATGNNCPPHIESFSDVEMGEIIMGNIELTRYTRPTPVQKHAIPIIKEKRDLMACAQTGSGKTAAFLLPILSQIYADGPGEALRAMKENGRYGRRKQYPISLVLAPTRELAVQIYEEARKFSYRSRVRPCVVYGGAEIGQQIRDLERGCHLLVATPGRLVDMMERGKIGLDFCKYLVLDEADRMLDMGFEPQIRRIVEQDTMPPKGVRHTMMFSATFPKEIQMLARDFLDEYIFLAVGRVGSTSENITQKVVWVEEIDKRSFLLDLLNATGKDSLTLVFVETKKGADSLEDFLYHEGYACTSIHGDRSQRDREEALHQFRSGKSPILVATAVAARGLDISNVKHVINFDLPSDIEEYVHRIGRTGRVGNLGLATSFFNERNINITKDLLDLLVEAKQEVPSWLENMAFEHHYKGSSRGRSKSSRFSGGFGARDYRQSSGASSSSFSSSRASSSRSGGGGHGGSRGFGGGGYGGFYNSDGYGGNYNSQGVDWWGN
UniProt O00303: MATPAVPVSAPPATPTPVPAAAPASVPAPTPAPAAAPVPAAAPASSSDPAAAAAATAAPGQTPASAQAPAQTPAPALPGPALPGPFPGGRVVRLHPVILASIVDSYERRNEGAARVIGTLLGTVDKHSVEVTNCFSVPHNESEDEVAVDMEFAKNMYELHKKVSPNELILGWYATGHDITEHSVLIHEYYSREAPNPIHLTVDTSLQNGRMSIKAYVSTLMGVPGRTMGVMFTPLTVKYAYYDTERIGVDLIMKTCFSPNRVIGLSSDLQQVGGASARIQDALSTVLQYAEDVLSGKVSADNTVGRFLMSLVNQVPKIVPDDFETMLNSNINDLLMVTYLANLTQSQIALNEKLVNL
UniProt Q6ZQ08: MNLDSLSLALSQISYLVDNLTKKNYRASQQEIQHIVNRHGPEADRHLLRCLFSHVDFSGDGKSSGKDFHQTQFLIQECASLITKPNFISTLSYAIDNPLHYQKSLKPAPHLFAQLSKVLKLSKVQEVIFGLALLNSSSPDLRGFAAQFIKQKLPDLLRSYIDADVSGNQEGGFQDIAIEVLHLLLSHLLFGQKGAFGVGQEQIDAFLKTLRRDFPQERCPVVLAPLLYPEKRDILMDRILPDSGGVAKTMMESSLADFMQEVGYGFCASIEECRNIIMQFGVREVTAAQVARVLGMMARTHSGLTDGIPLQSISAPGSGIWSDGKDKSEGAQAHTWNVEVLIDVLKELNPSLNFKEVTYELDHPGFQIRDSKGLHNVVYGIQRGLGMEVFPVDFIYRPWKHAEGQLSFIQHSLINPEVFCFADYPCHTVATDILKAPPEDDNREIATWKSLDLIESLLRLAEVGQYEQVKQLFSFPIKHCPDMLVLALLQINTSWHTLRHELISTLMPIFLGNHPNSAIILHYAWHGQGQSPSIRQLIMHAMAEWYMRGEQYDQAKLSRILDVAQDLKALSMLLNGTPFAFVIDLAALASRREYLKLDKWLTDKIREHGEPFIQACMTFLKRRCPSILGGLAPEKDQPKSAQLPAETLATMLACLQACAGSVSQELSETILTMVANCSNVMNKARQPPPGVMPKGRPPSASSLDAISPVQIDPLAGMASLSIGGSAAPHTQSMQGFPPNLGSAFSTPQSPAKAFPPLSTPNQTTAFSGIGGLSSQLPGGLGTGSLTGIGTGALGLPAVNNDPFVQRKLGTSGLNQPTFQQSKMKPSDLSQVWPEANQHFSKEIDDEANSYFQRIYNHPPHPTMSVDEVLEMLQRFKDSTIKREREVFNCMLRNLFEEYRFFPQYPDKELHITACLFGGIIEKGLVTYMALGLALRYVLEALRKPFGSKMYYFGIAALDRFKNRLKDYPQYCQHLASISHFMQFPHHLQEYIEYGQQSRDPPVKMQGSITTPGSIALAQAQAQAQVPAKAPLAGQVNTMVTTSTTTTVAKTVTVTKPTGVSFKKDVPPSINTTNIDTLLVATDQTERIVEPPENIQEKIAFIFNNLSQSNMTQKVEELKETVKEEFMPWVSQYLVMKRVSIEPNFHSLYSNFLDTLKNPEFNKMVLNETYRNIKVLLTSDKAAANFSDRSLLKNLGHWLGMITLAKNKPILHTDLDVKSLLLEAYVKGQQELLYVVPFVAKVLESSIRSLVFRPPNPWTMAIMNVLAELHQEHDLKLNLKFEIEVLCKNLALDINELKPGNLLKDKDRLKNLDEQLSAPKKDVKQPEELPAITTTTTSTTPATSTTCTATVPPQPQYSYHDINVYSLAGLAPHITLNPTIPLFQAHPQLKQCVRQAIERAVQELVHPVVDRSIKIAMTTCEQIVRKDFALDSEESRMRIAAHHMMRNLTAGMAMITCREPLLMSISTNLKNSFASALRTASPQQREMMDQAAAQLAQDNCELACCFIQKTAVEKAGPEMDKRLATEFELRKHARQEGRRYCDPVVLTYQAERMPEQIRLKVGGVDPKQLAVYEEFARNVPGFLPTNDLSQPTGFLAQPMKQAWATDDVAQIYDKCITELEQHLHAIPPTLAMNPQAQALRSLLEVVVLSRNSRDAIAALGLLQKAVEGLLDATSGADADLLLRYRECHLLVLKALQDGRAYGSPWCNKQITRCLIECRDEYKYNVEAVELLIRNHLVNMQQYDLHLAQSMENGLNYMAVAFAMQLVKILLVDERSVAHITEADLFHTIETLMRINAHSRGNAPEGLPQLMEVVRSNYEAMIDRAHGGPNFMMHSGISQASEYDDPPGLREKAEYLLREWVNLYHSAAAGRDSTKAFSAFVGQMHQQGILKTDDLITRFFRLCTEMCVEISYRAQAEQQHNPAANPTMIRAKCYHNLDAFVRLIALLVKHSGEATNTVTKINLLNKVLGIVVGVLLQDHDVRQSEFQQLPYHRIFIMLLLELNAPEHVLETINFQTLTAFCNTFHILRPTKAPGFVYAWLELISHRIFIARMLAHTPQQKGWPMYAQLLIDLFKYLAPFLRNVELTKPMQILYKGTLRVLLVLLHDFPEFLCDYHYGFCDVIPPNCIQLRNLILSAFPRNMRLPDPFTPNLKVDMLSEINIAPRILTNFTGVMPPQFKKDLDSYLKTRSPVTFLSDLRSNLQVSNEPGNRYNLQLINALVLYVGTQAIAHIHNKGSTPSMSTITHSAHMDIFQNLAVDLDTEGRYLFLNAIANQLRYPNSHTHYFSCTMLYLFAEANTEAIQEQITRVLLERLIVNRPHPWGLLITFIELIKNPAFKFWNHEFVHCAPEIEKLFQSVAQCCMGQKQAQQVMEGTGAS

Assays:
[1] = target: T1, GST-DDX6 (wild type), recombinant (UniProt P54823); assay: pull-down; GST fusion proteins (10 μg) immobilised on Glutathione Sepharose 4B, incubated with purified His-MBP-DDX3X^166-590 in RIPA buffer; western blot; both purified
T1 sequence: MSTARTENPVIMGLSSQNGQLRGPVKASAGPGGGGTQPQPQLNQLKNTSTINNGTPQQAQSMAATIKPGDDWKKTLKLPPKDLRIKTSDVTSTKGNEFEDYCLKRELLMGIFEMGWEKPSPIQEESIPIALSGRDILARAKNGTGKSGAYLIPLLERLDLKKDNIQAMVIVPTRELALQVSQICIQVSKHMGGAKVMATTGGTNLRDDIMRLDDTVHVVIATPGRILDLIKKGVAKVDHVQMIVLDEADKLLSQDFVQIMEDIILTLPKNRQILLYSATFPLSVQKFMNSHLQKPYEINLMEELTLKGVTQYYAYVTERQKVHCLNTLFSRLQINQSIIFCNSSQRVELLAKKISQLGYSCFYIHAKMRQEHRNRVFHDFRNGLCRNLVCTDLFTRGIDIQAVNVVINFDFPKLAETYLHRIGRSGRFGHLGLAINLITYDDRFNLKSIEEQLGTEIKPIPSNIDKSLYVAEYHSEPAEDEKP

[2] = target: T2, wild-type DDX6 of the co-IP experiments of Supplementary Fig. S6 (UniProt P54823); assay: co-IP; co-IP of wild-type, truncated and mutant DDX6 proteins (Supplementary Fig. S6A, B); cells not given; western blot
T2 sequence: T1 sequence

[3] = target: T3, Flag-tagged DDX6 (wild type) expressed in DDX6 cKO mESCs (UniProt P54823); assay: co-IP; anti-Flag M2 affinity gel from lysates of genetically rescued cKO mESCs expressing Flag-DDX6 or Flag-DDX3X at endogenous levels; 50 mM Tris pH 7.5, 150 mM NaCl, 1.0% NP-40, 10% glycerol, 1 mM EDTA; western blot
T3 sequence: T1 sequence

[4] = target: T4, Flag-DDX6 (86–468), RecA1-RecA2 domain, in 293T cells (UniProt P54823); assay: co-IP; anti-Flag M2 affinity gel from 293T cells transfected with DDX6 truncation mutants and HA-DDX3X; 50 mM Tris pH 7.5, 150 mM NaCl, 1.0% NP-40, 10% glycerol, 1 mM EDTA; western blot
T4 sequence: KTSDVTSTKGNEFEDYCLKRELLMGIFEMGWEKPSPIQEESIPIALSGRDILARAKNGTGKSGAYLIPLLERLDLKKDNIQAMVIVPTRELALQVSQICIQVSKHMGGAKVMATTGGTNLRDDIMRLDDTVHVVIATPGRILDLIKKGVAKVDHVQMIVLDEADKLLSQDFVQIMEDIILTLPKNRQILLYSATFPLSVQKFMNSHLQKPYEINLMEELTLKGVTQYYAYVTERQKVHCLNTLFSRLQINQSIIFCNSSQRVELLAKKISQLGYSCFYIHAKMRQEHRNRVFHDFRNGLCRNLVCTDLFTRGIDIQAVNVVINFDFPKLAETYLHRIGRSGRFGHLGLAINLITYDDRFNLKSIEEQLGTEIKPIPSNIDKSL

[5] = target: T5, GST-DDX6 (86–468), bacterially expressed (UniProt P54823); assay: pull-down; GST-DDX6 fusion proteins (10 μg) immobilised on Glutathione Sepharose 4B, incubated with lysates of HA-DDX3X-transfected 293T cells in RIPA buffer; western blot; only the target purified
T5 sequence: T4 sequence

[6] = target: Flag-DDX3X affinity-purified from HEK293T cells (UniProt Q62167); assay: pull-down; Flag-DDX3X affinity-purified and immobilised on M2 agarose beads, incubated with lysates of HA-eIF3F-expressing HEK293T cells (150 mM KCl); western blot of eIF3 subunits; only the target purified

Substance: 6xHis-MBP-DDX3X^166-590 (from UniProt Q62167 166-590) (domain or fragment)
binding [1]: binds

Substance: DDX3X, endogenous in mESCs (from UniProt Q62167 1-662)
binding [3]: binds

Substance: HA-eIF3F (from UniProt O00303 1-357)
binding [6]: binds

Now from value to substance:

binding [2]: binds
Substance: CNOT1 (from UniProt Q6ZQ08 1-2375)

binding [2]: binds
Substance: DDX3X found in the co-IP experiments of Supplementary Fig. S6 (from UniProt Q62167 1-662)

binding [4]: binds
binding [5]: binds
Substance: HA-DDX3X expressed in 293T cells (from UniProt Q62167 1-662)
